Source: article PMC6274781

Protein sequences, listed by entry. Tags and fused reporters are not part of them. Lines headed by an entry give the natural chain unless they say otherwise; changes in a name come on top.
UniProt Q9M7X9: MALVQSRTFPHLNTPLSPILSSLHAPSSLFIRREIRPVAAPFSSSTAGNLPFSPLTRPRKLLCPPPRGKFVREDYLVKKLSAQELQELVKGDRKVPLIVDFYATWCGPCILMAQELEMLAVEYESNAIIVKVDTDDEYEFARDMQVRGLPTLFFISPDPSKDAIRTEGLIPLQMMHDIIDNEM
UniProt Q41931: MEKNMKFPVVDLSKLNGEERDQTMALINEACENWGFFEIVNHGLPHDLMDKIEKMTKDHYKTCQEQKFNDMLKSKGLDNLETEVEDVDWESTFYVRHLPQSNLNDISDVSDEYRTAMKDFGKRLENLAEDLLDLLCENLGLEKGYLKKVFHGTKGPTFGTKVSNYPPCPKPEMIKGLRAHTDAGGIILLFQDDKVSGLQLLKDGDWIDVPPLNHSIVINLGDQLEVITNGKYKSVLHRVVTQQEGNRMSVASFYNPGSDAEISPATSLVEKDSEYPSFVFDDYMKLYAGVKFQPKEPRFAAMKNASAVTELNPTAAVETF
UniProt P49597: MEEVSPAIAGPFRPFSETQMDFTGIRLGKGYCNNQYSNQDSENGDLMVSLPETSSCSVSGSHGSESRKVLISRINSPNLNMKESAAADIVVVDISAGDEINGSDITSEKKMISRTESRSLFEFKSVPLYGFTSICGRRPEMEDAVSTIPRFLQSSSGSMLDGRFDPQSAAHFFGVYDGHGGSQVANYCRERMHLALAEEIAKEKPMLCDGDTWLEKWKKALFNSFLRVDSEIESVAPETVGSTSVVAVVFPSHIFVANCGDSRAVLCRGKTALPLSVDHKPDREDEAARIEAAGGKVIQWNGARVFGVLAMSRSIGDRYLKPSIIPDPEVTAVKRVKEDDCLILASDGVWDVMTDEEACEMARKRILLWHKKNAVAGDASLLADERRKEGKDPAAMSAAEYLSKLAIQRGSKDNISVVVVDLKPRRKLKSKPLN
UniProt Q6NPF9: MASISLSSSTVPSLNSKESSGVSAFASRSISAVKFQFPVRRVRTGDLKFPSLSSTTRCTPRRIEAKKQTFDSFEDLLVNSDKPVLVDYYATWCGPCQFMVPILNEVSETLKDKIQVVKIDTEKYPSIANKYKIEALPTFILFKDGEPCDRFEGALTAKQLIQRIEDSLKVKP
UniProt Q06588: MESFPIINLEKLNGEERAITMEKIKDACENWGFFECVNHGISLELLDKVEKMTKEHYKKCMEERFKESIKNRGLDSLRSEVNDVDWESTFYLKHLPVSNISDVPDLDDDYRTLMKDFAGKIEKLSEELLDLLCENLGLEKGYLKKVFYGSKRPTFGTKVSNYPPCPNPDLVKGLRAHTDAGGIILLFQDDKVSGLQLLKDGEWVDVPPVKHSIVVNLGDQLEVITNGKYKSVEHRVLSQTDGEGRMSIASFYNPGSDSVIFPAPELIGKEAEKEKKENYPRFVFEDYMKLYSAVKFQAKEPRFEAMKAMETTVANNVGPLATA

Legend:
Assay in all cases: two-hybrid; yeast strain Y2H Gold; RcGPXs as bait, Arabidopsis genes as prey (pGBKT7 and pGADT7 vectors); growth on SD-Trp-Leu-His solid media, SD-Trp-Leu as control; empty vectors as negative control
[1] = molecular target: Rhodiola crenulata glutathione peroxidase RcGPX2 (Rhodiola crenulata)
[2] = molecular target: Rhodiola crenulata glutathione peroxidase RcGPX4 (Rhodiola crenulata)
[3] = molecular target: Rhodiola crenulata glutathione peroxidase RcGPX5 (Rhodiola crenulata)
[4] = molecular target: Rhodiola crenulata glutathione peroxidase RcGPX7 (Rhodiola crenulata)
[5] = molecular target: Rhodiola crenulata glutathione peroxidase RcGPX8 (Rhodiola crenulata)
[6] = molecular target: Rhodiola crenulata glutathione peroxidase RcGPX2 (Rhodiola crenulata); remark: listed apart in the source
[7] = molecular target: Rhodiola crenulata glutathione peroxidase RcGPX4 (Rhodiola crenulata); remark: listed apart in the source
[8] = molecular target: Rhodiola crenulata glutathione peroxidase RcGPX5 (Rhodiola crenulata); remark: listed apart in the source
[9] = molecular target: Rhodiola crenulata glutathione peroxidase RcGPX7 (Rhodiola crenulata); remark: listed apart in the source
[10] = molecular target: Rhodiola crenulata glutathione peroxidase RcGPX8 (Rhodiola crenulata); remark: listed apart in the source

Row | Molecule | binding [1] | binding [2] | binding [3] | binding [4] | binding [5] | binding [6] | binding [7] | binding [8] | binding [9] | binding [10]
1 | AtTrxz (from UniProt Q9M7X9) | no binding | binds | binds | binds | binds |  |  |  |  | 
2 | AtACO2 (from UniProt Q41931 1-320) | no binding | no binding | no binding | no binding | no binding |  |  |  |  | 
3 | AtABI1 (from UniProt P49597 1-434) | no binding | no binding | no binding | no binding | no binding |  |  |  |  | 
4 | AtTrx1 (from UniProt Q6NPF9) | no binding | no binding | no binding | no binding | binds |  |  |  |  | 
5 | AtACO4 (from UniProt Q06588 1-323) | no binding | no binding | no binding | no binding | no binding |  |  |  |  | 
6 | AtABI2, 2C-type protein phosphatase ABA …2 (from UniProt O04719 1-423) | no binding | no binding | binds | binds | no binding |  |  |  |  | 
7 | AtACS9 (protein, UniProt Q9M2Y8 1-470) MKQLSRKVTSNAHGQDSSYFLGWEEYEKNPYDEIKNPNGIIQMGLAENQLCFDLIETWLAKNPDAAGLKKDGQSIFKELALFQDYHGLPEFKKALAEFMEEIRGNRVTFDPSKIVLAAGSTSANETLMFCLAEPGDAFLLPTPYYPGFDRDLKWRTGAEIVPIHCSSSNGFQITESALQQAYQQAQKLDLKVKGVLVTNPSNPLGTMLTRRELNLLVDFITSKNIHLISDEIYSGTVFGFEQFVSVMDVLKDKNLENSEVSKRVHIVYSLSKDLGLPGFRVGAIYSNDEMVVSAATKMSSFGLVSSQTQYLLSALLSDKKFTSTYLDENQKRLKIRQKKLVSGLEAAGITCLKSNAGLFCWVDMRHLLDTNTFEAELELWKKIVYDVKLNISPGSSCHCTEPGWFRVCFANMSEDTLDLAMKRLKEYVESTDSRRVISKSSHDRIKSLRKRTVSNWVFRVSWTDRVPDER |  |  |  |  |  | no binding | no binding | no binding | no binding | no binding
8 | AtACO1 (protein, UniProt Q9ZUN4 1-310) MVLIKEREMEIPVIDFAELDGEKRSKTMSLLDHACDKWGFFMVDNHGIDKELMEKVKKMINSHYEEHLKEKFYQSEMVKALSEGKTSDADWESSFFISHKPTSNICQIPNISEELSKTMDEYVCQLHKFAERLSKLMCENLGLDQEDIMNAFSGPKGPAFGTKVAKYPECPRPELMRGLREHTDAGGIILLLQDDQVPGLEFFKDGKWVPIPPSKNNTIFVNTGDQLEILSNGRYKSVVHRVMTVKHGSRLSIATFYNPAGDAIISPAPKLLYPSGYRFQDYLKLYSTTKFGDKGPRLETMKKMGNADSA |  |  |  |  |  | no binding | no binding | no binding | no binding | no binding
9 | AtACO5 (protein, UniProt Q0WPW4 1-307) MAIPVIDFSKLNGEEREKTLSEIARACEEWGFFQLVNHGIPLELLNKVKKLSSDCYKTEREEAFKTSNPVKLLNELVQKNSGEKLENVDWEDVFTLLDHNQNEWPSNIKETMGEYREEVRKLASKMMEVMDENLGLPKGYIKKAFNEGMEDGEETAFFGTKVSHYPPCPHPELVNGLRAHTDAGGVVLLFQDDEYDGLQVLKDGEWIDVQPLPNAIVINTGDQIEVLSNGRYKSAWHRVLAREEGNRRSIASFYNPSYKAAIGPAAVAEEEGSEKKYPKFVFGDYMDVYANQKFMPKEPRFLAVKSL |  |  |  |  |  | no binding | no binding | no binding | no binding | no binding
10 | AtABI5 (protein, UniProt Q9SJN0 1-442) MVTRETKLTSEREVESSMAQARHNGGGGGENHPFTSLGRQSSIYSLTLDEFQHALCENGKNFGSMNMDEFLVSIWNAEENNNNQQQAAAAAGSHSVPANHNGFNNNNNNGGEGGVGVFSGGSRGNEDANNKRGIANESSLPRQGSLTLPAPLCRKTVDEVWSEIHRGGGSGNGGDSNGRSSSSNGQNNAQNGGETAARQPTFGEMTLEDFLVKAGVVREHPTNPKPNPNPNQNQNPSSVIPAAAQQQLYGVFQGTGDPSFPGQAMGVGDPSGYAKRTGGGGYQQAPPVQAGVCYGGGVGFGAGGQQMGMVGPLSPVSSDGLGHGQVDNIGGQYGVDMGGLRGRKRVVDGPVEKVVERRQRRMIKNRESAARSRARKQAYTVELEAELNQLKEENAQLKHALAELERKRKQQYFESLKSRAQPKLPKSNGRLRTLMRNPSCPL |  |  |  |  |  | no binding | no binding | no binding | no binding | no binding
11 | AtCYP707A2 (protein, UniProt O81077 1-482) MQISSSSSSNFFSSLYADEPALITLTIVVVVVVLLFKWWLHWKEQRLRLPPGSMGLPYIGETLRLYTENPNSFFATRQNKYGDIFKTHILGCPCVMISSPEAARMVLVSKAHLFKPTYPPSKERMIGPEALFFHQGPYHSTLKRLVQSSFMPSALRPTVSHIELLVLQTLSSWTSQKSINTLEYMKRYAFDVAIMSAFGDKEEPTTIDVIKLLYQRLERGYNSMPLDLPGTLFHKSMKARIELSEELRKVIEKRRENGREEGGLLGVLLGAKDQKRNGLSDSQIADNIIGVIFAATDTTASVLTWLLKYLHDHPNLLQEVSREQFSIRQKIKKENRRISWEDTRKMPLTTRVIQETLRAASVLSFTFREAVQDVEYDGYLIPKGWKVLPLFRRIHHSSEFFPDPEKFDPSRFEVAPKPYTYMPFGNGVHSCPGSELAKLEMLILLHHLTTSFRWEVIGDEEGIQYGPFPVPKKGLPIRVTPI |  |  |  |  |  | no binding | no binding | no binding | no binding | no binding
12 | AtSNF4 (protein, UniProt Q944A6 1-487) MFGSTLDSSRGNSAASGQLLTPTRFVWPYGGRRVFLSGSFTRWTEHVPMSPLEGCPTVFQVICNLTPGYHQYKFFVDGEWRHDEHQPFVSGNGGVVNTIFITGPDMVPAGFSPETLGRSNMDVDDVFLRTADPSQEAVPRMSGVDLELSRHRISVLLSTRTAYELLPESGKVIALDVNLPVKQAFHILYEQGIPLAPLWDFGKGQFVGVLGPLDFILILRELGTHGSNLTEEELETHTIAAWKEGKAHISRQYDGSGRPYPRPLVQVGPYDNLKDVALKILQNKVAAVPVIYSSLQDGSYPQLLHLASLSGILKCICRYFRHSSSSLPILQQPICSIPLGTWVPRIGESSSKPLATLRPHASLGSALALLVQAEVSSIPVVDDNDSLIDIYSRSDITALAKDKAYAQIHLDDMTVHQALQLGQDASPPYGIFNGQRCHMCLRSDSLVKVMERLANPGVRRLVIVEAGSKRVEGIISLSDVFQFLLGL |  |  |  |  |  | no binding | no binding | no binding | no binding | no binding
13 | MYB (v-myb avian myeloblastosis viral oncogene homolog) transcription factor (AtMYB2) (protein, UniProt Q39028 1-273) MEDYERINSNSPTHEEDSDVRKGPWTEEEDAILVNFVSIHGDARWNHIARSSGLKRTGKSCRLRWLNYLRPDVRRGNITLEEQFMILKLHSLWGNRWSKIAQYLPGRTDNEIKNYWRTRVQKQAKHLRCDVNSNLFKETMRNVWMPRLVERINAQSLPTTCEQVESMITDPSQPVNEPSPVEPGFVQFSQNHHQQFVPATELSATSSNSPAETFSDVRGGVVNGSGYDPSGQTGFGEFNDWGCVGGDNMWTDEESFWFLQDQFCPDTTSYSYN |  |  |  |  |  | no binding | no binding | no binding | no binding | no binding

Where two headings read alike, the source gives them in different places. No constants are given. Whether binding was seen depends on the method and setting. For some assays here: Binding can be weak; no strength is given.
